Measurements as given in patent US20250003953A1, “Methods and Model Systems for Assessing Therapeutic Properties of Candidate Agents and Related Computer Readable Media and Systems” (The Regents of the University of California, priority 2021, published 2025).
At least one structure is not confirmed: it was looked up by name or label, or the drawing left a doubt.

System: lipid peroxidation
Assay: Lipid peroxidation live cell probe dose curve and survival kinetics
Assay type: cell-based
From the text: FIG. 7B plots gene expression of anti-ferroptotic genes for each cell line in response to increasing ARS1620 dosage. […] Lipid peroxidation and survival kinetics cross over around IC50 in all compounds indicating ARS1620 performs as a ferroptosis inducing agent.
Among this group of genes were FTH1 and FTL, the two components of the Ferritin Complex, which is responsible for sequestration of labile free iron. Using a lipid peroxidation live cell probe, lipid peroxidation—one of the hallmark phenotypes of ferroptosis—was measured in response to ARS-1620 treatment.

## CCOc1ccccc1-n1c(C(C)N2CCN(C(=O)COc3ccc(Cl)cc3)CC2)nc2ccccc2c1=O (stereo not shown) [Erastin]
  cross-over of survival and normalized lipid peroxidation curves: crossed over around the IC50 survival value
